Assay results published in PMC11538284.
These are yes or no findings as the source states them, for the method shown. In cells and extracts the contact can be indirect. These calls come from enrichment with a bait or labelling near it, and not all partners need be listed.

Amino acid sequences for entries named in this document (tags omitted).
UniProt Q6S8J3: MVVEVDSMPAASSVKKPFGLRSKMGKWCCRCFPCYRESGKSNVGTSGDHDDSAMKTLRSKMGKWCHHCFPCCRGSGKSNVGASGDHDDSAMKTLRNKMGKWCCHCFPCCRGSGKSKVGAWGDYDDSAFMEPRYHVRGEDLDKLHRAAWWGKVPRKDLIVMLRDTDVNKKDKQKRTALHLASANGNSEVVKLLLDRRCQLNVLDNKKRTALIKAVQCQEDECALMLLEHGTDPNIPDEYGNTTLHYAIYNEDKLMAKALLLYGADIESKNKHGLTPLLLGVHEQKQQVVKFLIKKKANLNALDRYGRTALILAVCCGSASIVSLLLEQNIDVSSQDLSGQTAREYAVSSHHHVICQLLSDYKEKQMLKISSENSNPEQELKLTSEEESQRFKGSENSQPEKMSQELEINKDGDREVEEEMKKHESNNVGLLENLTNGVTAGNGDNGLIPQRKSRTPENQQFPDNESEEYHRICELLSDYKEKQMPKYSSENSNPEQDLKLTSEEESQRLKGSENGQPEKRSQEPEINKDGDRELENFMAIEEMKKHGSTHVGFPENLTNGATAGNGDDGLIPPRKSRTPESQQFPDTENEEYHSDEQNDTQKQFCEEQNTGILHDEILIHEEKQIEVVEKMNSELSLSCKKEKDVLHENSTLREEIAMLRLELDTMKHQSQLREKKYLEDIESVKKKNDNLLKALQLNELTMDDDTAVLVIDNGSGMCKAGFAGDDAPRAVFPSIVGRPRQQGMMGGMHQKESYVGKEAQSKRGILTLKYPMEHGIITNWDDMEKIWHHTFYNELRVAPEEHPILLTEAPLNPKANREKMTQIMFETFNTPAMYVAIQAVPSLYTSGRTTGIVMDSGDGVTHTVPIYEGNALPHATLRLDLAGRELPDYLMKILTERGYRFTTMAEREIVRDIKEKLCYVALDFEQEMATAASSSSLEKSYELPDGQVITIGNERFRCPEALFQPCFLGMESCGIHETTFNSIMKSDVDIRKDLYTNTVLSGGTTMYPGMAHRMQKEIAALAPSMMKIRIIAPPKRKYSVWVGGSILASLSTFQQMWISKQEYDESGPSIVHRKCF
UniProt O60264: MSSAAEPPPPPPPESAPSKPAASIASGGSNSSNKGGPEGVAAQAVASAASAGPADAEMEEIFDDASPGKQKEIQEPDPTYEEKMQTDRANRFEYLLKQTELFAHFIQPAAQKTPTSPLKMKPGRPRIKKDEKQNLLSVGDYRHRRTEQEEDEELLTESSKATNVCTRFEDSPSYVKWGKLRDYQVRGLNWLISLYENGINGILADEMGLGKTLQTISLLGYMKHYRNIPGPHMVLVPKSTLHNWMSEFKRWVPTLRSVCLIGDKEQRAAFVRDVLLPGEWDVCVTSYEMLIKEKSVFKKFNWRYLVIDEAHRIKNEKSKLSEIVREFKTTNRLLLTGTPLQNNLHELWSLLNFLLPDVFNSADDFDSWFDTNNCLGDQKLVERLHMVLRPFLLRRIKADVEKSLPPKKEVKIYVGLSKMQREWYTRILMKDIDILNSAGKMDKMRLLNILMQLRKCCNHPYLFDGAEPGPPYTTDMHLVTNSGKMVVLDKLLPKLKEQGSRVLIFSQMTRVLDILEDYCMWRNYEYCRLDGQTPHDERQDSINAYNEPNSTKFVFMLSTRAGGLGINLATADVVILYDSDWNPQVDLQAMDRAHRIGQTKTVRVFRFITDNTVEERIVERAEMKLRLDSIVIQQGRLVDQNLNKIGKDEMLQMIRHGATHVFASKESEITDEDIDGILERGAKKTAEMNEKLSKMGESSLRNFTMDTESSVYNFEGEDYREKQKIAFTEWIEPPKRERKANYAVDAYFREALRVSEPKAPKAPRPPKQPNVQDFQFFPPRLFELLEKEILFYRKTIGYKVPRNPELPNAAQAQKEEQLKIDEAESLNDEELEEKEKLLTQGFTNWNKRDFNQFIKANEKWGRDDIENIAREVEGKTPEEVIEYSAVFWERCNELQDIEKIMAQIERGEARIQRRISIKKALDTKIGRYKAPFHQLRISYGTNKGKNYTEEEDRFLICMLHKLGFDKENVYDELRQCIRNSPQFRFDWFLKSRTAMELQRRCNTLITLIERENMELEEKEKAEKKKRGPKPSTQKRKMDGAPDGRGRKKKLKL

T1: Ubiquitin-specific protease 3 (USP3), endogenous (human (endogenous in PC3)) (UniProt Q9Y6I4)
T1 sequence: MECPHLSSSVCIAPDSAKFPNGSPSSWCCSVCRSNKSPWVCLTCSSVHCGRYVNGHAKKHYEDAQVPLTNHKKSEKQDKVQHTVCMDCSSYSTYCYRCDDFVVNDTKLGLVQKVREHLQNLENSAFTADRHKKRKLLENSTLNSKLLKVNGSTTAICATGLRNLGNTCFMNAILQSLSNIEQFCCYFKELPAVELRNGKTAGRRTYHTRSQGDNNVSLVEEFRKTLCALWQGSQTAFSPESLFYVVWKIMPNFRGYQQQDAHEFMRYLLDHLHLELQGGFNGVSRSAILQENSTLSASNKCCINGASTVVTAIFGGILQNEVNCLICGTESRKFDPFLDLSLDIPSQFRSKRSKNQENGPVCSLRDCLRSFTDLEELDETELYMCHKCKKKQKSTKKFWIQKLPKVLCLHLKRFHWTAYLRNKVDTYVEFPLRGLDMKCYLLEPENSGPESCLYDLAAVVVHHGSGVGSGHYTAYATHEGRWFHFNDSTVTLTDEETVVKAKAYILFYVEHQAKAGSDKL

B1: EBNA1BP2 (protein, UniProt Q99848 1-306)
chain: MDTPPLSDSESESDESLVTDRELQDAFSRGLLKPGLNVVLEGPKKAVNDVNGLKQCLAEFKRDLEWVERLDVTLGPVPEIGGSEAPAPQNKDQKAVDPEDDFQREMSFYRQAQAAVLAVLPRLHQLKVPTKRPTDYFAEMAKSDLQMQKIRQKLQTKQAAMERSEKAKQLRALRKYGKKVQTEVLQKRQQEKAHMMNAIKKYQKGFSDKLDFLEGDQKPLAQRKKAGAKGQQMRKGPSAKRRYKNQKFGFGGKKKGSKWNTRESYDDVSSFRAKTAHGRGLKRPGKKGSNKRPGKRTREKMKNRTH

target: T1, Ubiquitin-specific protease 3 (USP3), endogenous (human (endogenous in PC3)); assay: affinity purification with mass spectrometry; PC3 cells lysed, immunoprecipitation with anti-USP3 antibody and protein A/G agarose beads, gel stained with silver, mass spectrometry

binding | Molecule
binds | TTN (from UniProt Q8WZ42 1-34350)
binds | POTEE (from UniProt Q6S8J3 1-1075)
binds | SMARCA5, SWI/SNF-related matrix-associated actin-dependent regulator of chromatin subfamily A member 5, endogenous (from UniProt O60264 1-1052) (enzyme)
binds | B1
